Test results: the supplement of paper PMC3334620
In all, about 33,000 sequences were measured (“E-score (-0.5 to 0.5)”: median about -0.0014, highest 2% from about 0.25 on). The list shows a part of the results.

Biological target: T1, Cad1 (UniProt P24813)
T1 sequence: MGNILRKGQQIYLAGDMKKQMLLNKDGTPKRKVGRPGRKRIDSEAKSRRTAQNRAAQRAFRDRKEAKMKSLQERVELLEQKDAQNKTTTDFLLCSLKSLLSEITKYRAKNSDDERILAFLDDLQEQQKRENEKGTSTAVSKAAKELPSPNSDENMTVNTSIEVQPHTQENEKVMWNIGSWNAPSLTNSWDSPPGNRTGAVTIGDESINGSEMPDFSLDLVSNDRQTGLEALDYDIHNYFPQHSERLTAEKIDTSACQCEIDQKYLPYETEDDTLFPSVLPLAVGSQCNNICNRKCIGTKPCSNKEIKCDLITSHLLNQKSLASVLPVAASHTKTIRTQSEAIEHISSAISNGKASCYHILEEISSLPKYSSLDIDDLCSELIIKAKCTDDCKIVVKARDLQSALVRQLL
Assay: PBM E-score (8-mer binding enrichment) (E-score (-0.5 to 0.5)); higher = stronger / more preferred TF binding
Conditions: protein concentration: 100 nM; construct: GST-full length
Procedure, shortened: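 GST-tagged yeast TFs (full-length or DNA-binding domain) were made by PURExpress in vitro transcription/translation and applied at about 100-200 nM to universal all-10-mer Agilent arrays. The arrays were made double-stranded by primer extension, on fresh or once-stripped slides. Bound protein was detected with fluorescent anti-GST, and scans were normalised with masliner. Each ungapped eight-base word, pooled with its reverse complement, received an E-score (modified Wilcoxon-Mann-Whitney statistic) from the Universal PBM Analysis Suite.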

Row | Sequence | PBM E-score
1 | ATGTCAGG | -0.0849
2 | CCCGAGGA | -0.0293
3 | CAACTGTA | 0.0739
4 | CCACTTCG | -0.0941
5 | AGAGAAAG | -0.0812
6 | AACAGCTG | 0.204
7 | AACTGCAC | 0.135
8 | GCTGAAGA | 0.00892
9 | CGACGCAG | -0.075
10 | TCCCGTAA | -0.012
11 | ATTTGCTC | -0.19
12 | AGATTGTG | 0.0423
13 | CAGCTACC | 0.0165
14 | ATTGCTCA | 0.199
15 | CAATCCGG | 0.148
16 | CGGGTCCC | -0.328
17 | GTCCTCAA | 0.0648
18 | AATTCTGA | 0.131
19 | TAAGCACA | 0.295
20 | GTGAGGGA | -0.258
21 | ATACACTC | -0.038
22 | CTCAAGGC | -0.0857
23 | CAACGTCG | 0.138
24 | GACGCGGA | -0.00342
25 | ATGTGCTC | 0.101

Row | Sequence | PBM E-score
26 | ATCCCATG | -0.157
27 | CCGCATAC | -0.107
28 | GGTCAGCA | 0.191
29 | GCGTATAC | 0.118
30 | ATCCAGCA | 0.0328
31 | CGTTGTAC | 0.117
32 | AGGAGAAC | -0.262
33 | ATGGAGTA | -0.031
34 | CTAATTCA | 0.0862
35 | CGCATGTA | -0.195
36 | CGTACAAG | -0.263
37 | ATGTCGTG | -0.101
38 | AGTTATAA | -0.037
39 | CAGTGAAA | 0.2
40 | ATGTCTGA | 0.129
41 | AAGCTCGA | 0.263
42 | ACTGTTAC | -0.0231
43 | AGTTATGC | 0.0711
44 | ACAGCACC | -0.154
45 | ACCGCCTA | -0.171
46 | CCATTTTC | 0.1
47 | CATATTAA | 0.272
48 | ACCAAGCA | 0.0367
49 | ACAGCCGG | 0.0334
50 | GGTTTGGA | -0.0883

Row | Sequence | PBM E-score
51 | TGACTCAA | -0.0491
52 | ATCCAAAT | 0.0959
53 | GAAAACCA | -0.0585
54 | ATCGCATA | 0.0254
55 | ATGGGATA | -0.0986
56 | ACTGCTCA | 0.138
57 | GGTCCTTA | -0.0018
58 | AGATTCCG | 0.124
59 | GCGGGCCC | -0.157
60 | CCCTCTTC | -0.356
61 | ATTCCCAA | 0.159
62 | ACATTAAC | 0.137
63 | GTTTTTCA | 0.0774
64 | AGTTCCGC | 0.112
65 | ACGAGGAT | -0.074
66 | CTCCTTAC | -0.131
67 | AGCGTCCT | -0.0203
68 | GGCAGAAA | 0.18
69 | CGCTAGTC | -0.261
70 | CTCGTCTA | -0.013
71 | AAGTACAC | 0.00466
72 | ATAGGCCC | -0.15
73 | AAGCAATA | 0.109
74 | AACGGCTA | 0.00447
75 | GTCCTCAC | -0.0404

Row | Sequence | PBM E-score
76 | AGTTGGGG | 0.0395
77 | CAAAAGGA | -0.119
78 | CGCACATA | -0.141
79 | CCAGGCCG | -0.0136
80 | AGAGAGCT | -0.287
81 | GACGAACA | -0.00348
82 | ATTCAAGA | 0.0376
83 | GAAACGAC | 0.102
84 | AAAAAAAC | 0.121
85 | ACCCCGTA | -0.0798
86 | GCTGCACA | -0.0662
87 | ACTTGAGG | -0.194
88 | CAAGGACG | -0.183
89 | ACCTAACA | 0.076
90 | AGACTTTA | -0.0331
91 | AGCACAGA | 0.162
92 | GAAATCTA | -0.00135
93 | ATGTCTGG | 0.0992
94 | AGAATTCT | 0.278
95 | CCTGTCGC | -0.1
96 | AGGGAATG | -0.188
97 | AGACAGTG | -0.00612
98 | CCTTTTTC | -0.0177
99 | GTAGTTTA | 0.181
100 | GAATAGCA | 0.0619

A second format for some results above.
CAGCTACC
  PBM E-score: 0.0165
GGTCAGCA
  PBM E-score: 0.191
ACCAAGCA
  PBM E-score: 0.0367

The list continues.

Row | Sequence | PBM E-score
101 | TTATGCAA | 0.0783
102 | ATTGTACA | 0.106
103 | AAGTACGC | -0.0964
104 | ACGCTGGC | 0.0271
105 | AACAGTAC | 0.106
106 | CTTGAGGC | -0.225
107 | GTGACAGA | 0.144
108 | ACTGAACG | -0.115
109 | CAAAGGCC | -0.102
110 | ACGGGCCA | -0.0812
111 | CGCCGGCA | 0.125
112 | CCGACCCA | -0.0445
113 | GACTGTGC | -0.169
114 | CCCCTGCG | -0.274
115 | CCTTTAAC | 0.0365
116 | AATCCTTA | -0.116
117 | GAAGTCAA | 0.0175
118 | AGCCTTTC | -0.21
119 | ATTCAACA | -0.0203
120 | AAAAGCCT | -0.241
121 | ATAGTCAT | 0.0622
122 | ATTCGCGA | 0.195
123 | CCCCCCCG | -0.456
124 | CACGCTCC | -0.226
125 | CAGATATA | 0.179

Quoted from the listing.
Under PBM E-score, ACTGCTCA reads 0.138
Under PBM E-score, ATGTCTGA reads 0.129
Under PBM E-score, AAGTACAC reads 0.00466
Under PBM E-score, AAAAGCCT reads -0.241
Under PBM E-score, CCCCTGCG reads -0.274

(further entries)

Row | Sequence | PBM E-score
126 | CGAATCCG | 0.121
127 | CAAGTATG | 0.0779
128 | TCGAGCGA | 0.104
129 | CCGCACAC | -0.219
130 | CAAATCAA | 0.152
131 | ACACAAAG | 0.0591
132 | AATTGTCC | 0.104
133 | ACAGTACA | 0.0552
134 | AGATCGGA | 0.0863
135 | CCTGATTA | 0.31
136 | CCGACTGA | -0.114
137 | AATAGGGT | 0.0291
138 | CCGACGCC | -0.0383
139 | CACACTCA | 0.194
140 | ATGTGGCG | -0.0179
141 | GCCCTCGC | -0.101
142 | GTGTATAA | -0.133
143 | CCCGGGCC | -0.265
144 | AGCCTCCC | -0.263
145 | ATACACTA | 0.205
146 | ACGCCGAC | 0.0575
147 | AAATATCC | 0.154
148 | TCGGTTAA | 0.129
149 | CGGGTGGA | -0.0447
150 | CTGCGAGC | 0.116

Row | Sequence | PBM E-score
151 | ATGGCTTC | -0.0365
152 | ACTGAGAC | -0.0406
153 | ATTACGCC | -0.0172
154 | CTCGATTC | 0.0642
155 | GCAAGTAA | -0.0983
156 | AACCGAAT | 0.1
157 | ATCTGTCA | 0.185
158 | AAATTGGT | 0.11
159 | ATTTCCGG | 0.264
160 | ATCTTCAG | 0.184
161 | GTGTGGCA | -0.0898
162 | CACCTTGG | -0.126
163 | CTGCCGGA | 0.0447
164 | ACGTGGGC | -0.0316
165 | GCAGGCTA | -0.217
166 | ATGGACTA | 0.0818
167 | CGTATGAA | 0.0582
168 | CTTCTTTA | 0.13
169 | CACACGAA | 0.111
170 | AAACCCGC | 0.179
171 | ATTCCAAT | 0.0221
172 | AAGGCGCG | 0.0162
